Measured values as given in the supplement of paper PMC10849652.
The list shows a part of the results.

Chains of the proteins cited; added tags and fusions are not shown. Lines headed by an entry give the natural chain unless they say otherwise; changes in a name come on top.
UniProt Q9P2R7: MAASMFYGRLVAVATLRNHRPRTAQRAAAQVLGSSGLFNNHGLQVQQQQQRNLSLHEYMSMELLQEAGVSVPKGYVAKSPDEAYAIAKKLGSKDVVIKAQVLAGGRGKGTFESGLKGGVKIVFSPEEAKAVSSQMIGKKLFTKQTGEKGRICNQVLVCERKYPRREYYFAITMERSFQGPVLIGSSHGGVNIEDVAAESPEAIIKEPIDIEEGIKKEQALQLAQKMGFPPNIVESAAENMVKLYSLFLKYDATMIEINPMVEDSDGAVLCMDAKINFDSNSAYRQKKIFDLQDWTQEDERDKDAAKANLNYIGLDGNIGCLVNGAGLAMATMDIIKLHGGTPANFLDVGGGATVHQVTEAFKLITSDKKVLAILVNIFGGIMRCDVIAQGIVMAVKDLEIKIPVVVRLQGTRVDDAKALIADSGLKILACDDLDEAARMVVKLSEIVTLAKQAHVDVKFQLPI
UniProt P56962: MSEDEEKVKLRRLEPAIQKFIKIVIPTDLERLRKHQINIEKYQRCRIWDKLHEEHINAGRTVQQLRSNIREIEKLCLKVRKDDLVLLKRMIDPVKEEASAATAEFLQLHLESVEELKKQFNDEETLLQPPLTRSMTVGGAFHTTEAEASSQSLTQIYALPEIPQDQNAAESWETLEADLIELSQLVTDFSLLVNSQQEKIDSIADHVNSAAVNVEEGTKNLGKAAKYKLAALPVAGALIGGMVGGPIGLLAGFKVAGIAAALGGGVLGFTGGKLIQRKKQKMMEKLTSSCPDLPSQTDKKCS
UniProt Q16563: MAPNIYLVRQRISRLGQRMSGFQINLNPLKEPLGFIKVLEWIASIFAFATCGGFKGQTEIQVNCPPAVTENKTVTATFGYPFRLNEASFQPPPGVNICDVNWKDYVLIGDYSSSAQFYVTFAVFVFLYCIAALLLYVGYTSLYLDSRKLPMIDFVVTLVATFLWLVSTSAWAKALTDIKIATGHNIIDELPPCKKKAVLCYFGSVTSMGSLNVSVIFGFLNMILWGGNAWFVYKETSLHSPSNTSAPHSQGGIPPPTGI
UniProt O75410: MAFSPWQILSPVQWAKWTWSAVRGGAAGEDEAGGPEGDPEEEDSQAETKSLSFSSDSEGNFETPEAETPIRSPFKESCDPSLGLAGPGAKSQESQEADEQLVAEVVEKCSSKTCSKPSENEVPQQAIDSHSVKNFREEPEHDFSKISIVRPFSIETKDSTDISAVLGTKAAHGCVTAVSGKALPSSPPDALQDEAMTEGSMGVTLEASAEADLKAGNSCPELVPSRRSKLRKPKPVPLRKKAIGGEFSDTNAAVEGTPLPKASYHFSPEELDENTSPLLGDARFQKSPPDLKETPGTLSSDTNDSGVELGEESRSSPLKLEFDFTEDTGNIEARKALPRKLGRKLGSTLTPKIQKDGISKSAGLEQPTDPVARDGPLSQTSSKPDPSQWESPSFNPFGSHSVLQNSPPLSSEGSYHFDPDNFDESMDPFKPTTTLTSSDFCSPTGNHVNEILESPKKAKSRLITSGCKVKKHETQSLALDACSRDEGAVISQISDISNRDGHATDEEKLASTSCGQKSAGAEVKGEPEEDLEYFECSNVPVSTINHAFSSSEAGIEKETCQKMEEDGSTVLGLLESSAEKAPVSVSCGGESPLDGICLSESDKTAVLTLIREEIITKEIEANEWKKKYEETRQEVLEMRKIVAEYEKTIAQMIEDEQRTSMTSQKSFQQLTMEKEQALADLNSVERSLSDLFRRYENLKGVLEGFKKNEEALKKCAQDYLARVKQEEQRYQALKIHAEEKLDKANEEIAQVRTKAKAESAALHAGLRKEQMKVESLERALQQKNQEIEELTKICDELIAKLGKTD
UniProt Q8IWZ8: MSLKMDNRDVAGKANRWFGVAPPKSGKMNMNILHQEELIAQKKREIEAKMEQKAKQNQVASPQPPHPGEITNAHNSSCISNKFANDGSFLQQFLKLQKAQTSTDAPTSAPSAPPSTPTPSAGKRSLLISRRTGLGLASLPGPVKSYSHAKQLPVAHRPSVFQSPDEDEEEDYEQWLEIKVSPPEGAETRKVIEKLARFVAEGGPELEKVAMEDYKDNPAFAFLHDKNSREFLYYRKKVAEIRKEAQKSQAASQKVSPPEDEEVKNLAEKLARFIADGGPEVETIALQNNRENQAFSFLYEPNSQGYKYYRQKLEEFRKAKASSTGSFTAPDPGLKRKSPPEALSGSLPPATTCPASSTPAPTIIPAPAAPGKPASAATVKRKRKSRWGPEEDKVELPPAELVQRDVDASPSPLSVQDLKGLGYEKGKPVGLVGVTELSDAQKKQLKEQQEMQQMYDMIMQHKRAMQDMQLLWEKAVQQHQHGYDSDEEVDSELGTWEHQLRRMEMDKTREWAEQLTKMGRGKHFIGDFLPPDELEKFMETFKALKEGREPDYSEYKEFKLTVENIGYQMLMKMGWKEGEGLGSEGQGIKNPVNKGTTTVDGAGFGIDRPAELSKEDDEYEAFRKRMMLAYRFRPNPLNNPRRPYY
UniProt Q8NBJ7: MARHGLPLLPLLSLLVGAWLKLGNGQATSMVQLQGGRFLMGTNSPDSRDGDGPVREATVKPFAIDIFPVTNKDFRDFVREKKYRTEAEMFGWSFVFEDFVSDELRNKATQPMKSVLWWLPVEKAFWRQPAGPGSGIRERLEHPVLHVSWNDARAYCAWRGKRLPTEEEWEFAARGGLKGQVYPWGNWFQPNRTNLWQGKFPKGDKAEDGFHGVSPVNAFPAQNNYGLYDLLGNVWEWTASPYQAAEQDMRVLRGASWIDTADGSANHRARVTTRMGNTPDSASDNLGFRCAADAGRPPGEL
UniProt O43752: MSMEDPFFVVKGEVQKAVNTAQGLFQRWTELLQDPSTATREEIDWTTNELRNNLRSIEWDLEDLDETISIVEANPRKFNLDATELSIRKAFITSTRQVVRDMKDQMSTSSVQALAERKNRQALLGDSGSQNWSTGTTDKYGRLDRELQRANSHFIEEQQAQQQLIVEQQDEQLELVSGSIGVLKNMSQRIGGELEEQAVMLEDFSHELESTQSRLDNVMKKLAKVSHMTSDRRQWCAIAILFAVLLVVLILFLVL
UniProt Q9P2W9: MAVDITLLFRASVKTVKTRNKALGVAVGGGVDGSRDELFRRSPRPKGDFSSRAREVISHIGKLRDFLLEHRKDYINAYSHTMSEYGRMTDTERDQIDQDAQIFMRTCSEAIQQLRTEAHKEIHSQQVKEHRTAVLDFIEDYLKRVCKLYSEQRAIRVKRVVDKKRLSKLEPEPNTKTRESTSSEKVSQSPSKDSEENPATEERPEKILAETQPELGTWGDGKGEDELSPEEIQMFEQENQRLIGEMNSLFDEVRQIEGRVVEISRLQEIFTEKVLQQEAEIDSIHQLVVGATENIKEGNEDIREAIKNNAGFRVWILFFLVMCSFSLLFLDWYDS
UniProt Q96BN2: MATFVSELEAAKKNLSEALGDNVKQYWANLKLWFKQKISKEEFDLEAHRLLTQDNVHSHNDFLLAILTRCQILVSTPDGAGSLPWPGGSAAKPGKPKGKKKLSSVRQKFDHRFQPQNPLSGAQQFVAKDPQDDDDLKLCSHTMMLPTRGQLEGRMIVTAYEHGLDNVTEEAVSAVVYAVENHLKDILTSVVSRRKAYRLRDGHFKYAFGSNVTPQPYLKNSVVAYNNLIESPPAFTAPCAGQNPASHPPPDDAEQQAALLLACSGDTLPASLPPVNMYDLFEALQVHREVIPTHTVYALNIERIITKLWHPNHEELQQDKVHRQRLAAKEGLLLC
UniProt Q9NYJ8: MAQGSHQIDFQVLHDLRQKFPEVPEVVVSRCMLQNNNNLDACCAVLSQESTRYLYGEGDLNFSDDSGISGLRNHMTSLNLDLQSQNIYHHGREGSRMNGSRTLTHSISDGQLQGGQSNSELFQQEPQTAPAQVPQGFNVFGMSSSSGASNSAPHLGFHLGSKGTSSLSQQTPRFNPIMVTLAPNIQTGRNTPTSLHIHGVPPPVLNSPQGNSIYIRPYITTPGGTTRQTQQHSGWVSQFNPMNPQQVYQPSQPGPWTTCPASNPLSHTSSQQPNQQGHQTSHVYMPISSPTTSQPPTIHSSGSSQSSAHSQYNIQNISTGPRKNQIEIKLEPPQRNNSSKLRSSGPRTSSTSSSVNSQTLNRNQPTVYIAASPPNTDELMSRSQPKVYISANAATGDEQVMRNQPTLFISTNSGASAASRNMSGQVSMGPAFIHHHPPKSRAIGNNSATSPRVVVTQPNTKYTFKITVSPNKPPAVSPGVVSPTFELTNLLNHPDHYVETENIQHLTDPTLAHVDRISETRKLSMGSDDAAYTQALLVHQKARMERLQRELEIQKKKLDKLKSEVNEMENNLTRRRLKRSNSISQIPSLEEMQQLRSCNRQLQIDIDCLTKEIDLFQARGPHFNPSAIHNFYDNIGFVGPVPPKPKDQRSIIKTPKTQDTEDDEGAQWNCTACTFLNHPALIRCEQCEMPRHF
UniProt P08247, whole entry, looked up: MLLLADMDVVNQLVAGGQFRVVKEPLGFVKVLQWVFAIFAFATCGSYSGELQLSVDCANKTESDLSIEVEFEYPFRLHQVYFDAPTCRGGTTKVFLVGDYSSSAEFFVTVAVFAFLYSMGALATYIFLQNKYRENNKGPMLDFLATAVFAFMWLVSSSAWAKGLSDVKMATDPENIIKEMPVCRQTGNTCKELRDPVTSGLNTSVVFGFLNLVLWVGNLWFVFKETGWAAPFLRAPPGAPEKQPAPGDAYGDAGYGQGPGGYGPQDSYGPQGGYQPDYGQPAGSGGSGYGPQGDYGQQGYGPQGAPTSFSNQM
UniProt Q13277: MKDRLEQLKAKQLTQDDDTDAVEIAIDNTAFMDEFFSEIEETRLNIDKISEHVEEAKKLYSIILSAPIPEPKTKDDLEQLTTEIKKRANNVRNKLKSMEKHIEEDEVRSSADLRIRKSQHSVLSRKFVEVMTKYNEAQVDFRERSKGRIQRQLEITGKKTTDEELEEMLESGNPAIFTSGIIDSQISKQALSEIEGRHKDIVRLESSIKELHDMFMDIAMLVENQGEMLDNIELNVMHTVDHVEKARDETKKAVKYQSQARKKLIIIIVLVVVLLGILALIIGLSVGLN
UniProt Q92750: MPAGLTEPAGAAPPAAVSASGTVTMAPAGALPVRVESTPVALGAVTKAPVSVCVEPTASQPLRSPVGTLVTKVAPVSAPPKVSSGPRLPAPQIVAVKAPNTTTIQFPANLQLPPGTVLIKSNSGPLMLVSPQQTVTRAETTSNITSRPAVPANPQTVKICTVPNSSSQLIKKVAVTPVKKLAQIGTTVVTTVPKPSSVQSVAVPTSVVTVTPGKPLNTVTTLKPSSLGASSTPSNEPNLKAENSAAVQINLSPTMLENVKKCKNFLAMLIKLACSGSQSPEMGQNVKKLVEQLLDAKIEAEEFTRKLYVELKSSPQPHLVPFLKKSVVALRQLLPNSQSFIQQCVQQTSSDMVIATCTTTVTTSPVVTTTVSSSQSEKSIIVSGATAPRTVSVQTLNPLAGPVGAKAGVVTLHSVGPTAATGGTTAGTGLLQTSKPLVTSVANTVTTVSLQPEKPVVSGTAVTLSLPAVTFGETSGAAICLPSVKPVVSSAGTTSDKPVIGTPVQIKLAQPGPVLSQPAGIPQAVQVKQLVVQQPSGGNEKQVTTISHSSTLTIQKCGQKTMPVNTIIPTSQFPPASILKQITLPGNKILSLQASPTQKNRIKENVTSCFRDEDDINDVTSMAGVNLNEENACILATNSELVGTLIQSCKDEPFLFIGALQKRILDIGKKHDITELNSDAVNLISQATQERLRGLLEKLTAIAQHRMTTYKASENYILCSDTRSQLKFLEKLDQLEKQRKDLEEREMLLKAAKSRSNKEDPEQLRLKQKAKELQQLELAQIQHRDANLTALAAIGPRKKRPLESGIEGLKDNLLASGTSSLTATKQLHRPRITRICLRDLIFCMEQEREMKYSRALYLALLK
UniProt Q15022: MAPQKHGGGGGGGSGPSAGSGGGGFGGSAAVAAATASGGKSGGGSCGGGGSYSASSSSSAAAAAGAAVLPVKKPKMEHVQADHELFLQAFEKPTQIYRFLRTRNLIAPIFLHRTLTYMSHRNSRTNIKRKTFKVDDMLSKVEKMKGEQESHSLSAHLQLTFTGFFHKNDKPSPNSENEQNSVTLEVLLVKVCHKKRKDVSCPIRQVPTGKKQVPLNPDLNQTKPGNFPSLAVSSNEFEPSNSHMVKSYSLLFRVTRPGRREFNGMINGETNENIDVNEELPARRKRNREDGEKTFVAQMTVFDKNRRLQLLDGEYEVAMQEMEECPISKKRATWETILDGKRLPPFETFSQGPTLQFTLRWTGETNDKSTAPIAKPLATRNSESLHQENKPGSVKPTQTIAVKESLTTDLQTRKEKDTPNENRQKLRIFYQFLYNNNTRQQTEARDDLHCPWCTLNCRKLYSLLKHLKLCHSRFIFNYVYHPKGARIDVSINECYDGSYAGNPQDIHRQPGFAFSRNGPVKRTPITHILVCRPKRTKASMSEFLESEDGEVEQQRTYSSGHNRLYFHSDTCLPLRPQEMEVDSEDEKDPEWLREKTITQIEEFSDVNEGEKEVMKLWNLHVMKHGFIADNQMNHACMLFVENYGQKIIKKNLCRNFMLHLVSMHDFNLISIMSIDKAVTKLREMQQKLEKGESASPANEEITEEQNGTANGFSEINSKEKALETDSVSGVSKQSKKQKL

Key:
Assay in all cases: log2 fold change, soluble protein after heating vs DMSO (PISA); higher = thermal stabilisation; K562 lysate, 10 uM; active = over 0.2 and 3.5 SD of the protein, either way, in both replicates (recomputed)
[1] = compound: C1=CC=C(C=C1)[C@H](COC2=CC3=C(C=C2)NC(=O)N3)NC(=O)C4=CC=CN(C4=O)CC5=CC(=C(C=C5)F)F
Outline: (§1)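 A 30 min treatment with 10 μM compound was applied to crude K562 extract at 1 mg/mL protein in PBS pH 7.4 with 1 mM MgCl2. Heating for 3 min spanned 48°C-58°C, after which aliquots were pooled, adjusted to 0.5% NP-40 at 4°C and spun at 21,000xg for 90 min. TMTpro 16plex LC-MS/MS of the supernatant, with channel sums equalised, gave values recorded as log-two fold change in thermal stability against solvent controls, from duplicates.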

[2] = compound: CC1=C(SC2=C1C(=N[C@H](C3=NN=C(N32)C)CC(=O)N)C4=CC=C(C=C4)Cl)C
Outline: as §1

[3] = compound: CC1=C2C(=CC=C1)N=C(N(C2=O)C3=CC=CC=C3C)CN4C=NC5=C(N=CN=C54)N
Outline: as §1

[4] = compound: Cc1sc2c(c1C)C(c1ccc(Cl)cc1)=N[C@@H](CC(=O)OC(C)(C)C)c1nnc(C)n1-2
Outline: as §1

[5] = compound: c1ccc([C@@H]2C[C@H]2NC2CCNCC2)cc1
Outline: as §1

Measured: log2 fold change

SUCLA2 (UniProt Q9P2R7)
inactive: [1] -0.005 | [2] -0.015 | [3] 0.051 | [4] 0.002 | [5] -0.013

STX17 (UniProt P56962)
inactive: [1] 0.038 | [2] 0.069 | [3] -0.025 | [4] -0.086 | [5] 0.006

STON2 isoform 3 (UniProt Q8WXE9)
inactive: [1] -0.059 | [2] 0.052 | [3] 0.07 | [4] 0.017 | [5] 0.053

SYPL1 (UniProt Q16563)
inactive: [1] -0.075 | [2] 0.003 | [3] -0.01 | [4] -0.041 | [5] -0.123

TACC1 (UniProt O75410)
inactive: [1] -0.062 | [2] -0.017 | [3] 0.02 | [4] 0.068 | [5] -0.023

SUGP1 (UniProt Q8IWZ8)
inactive: [1] 0.043 | [2] -0.041 | [3] 0.014 | [4] -0.011 | [5] -0.001

SUMF2 (UniProt Q8NBJ7)
inactive: [1] 0.021 | [2] -0.056 | [3] 0.035 | [4] -0.04 | [5] -0.042

STX6 (UniProt O43752)
inactive: [1] 0.004 | [2] -0.018 | [3] 0.026 | [4] -0.009 | [5] -0.024

SUOX (UniProt P51687)
inactive: [1] 0.037 | [2] 0.016 | [3] -0.012 | [4] -0.028 | [5] -0.025

STXBP5 (UniProt Q5T5C0)
inactive: [1] 0.008 | [2] -0.014 | [3] 0.037 | [4] -0.035 | [5] -0.027

TACO1 (UniProt Q9BSH4)
inactive: [1] 0.002 | [2] 0.058 | [3] 0.024 | [4] -0.023 | [5] 0.019

STT3B (UniProt Q8TCJ2)
inactive: [1] 0.042 | [2] -0.087 | [3] -0.021 | [4] -0.068 | [5] -0.119

Two neighbouring records from above, quoted:
STX6 (UniProt O43752)
inactive: [1] 0.004 | [2] -0.018 | [3] 0.026 | [4] -0.009 | [5] -0.024

SUOX (UniProt P51687)
inactive: [1] 0.037 | [2] 0.016 | [3] -0.012 | [4] -0.028 | [5] -0.025

Next part:

STX18 (UniProt Q9P2W9)
inactive: [1] -0.047 | [2] 0.068 | [3] 0.053 | [4] -0.023 | [5] 0.045

SUPT5H (UniProt O00267)
inactive: [1] 0 | [2] 0.021 | [3] 0.003 | [4] -0.013 | [5] 0.039

SURF1 (UniProt Q15526)
inactive: [1] -0.036 | [2] 0.043 | [3] 0.026 | [4] -0.071 | [5] -0.01

TADA1 (UniProt Q96BN2)
inactive: [1] -0.054 | [2] 0.011 | [3] 0 | [4] 0 | [5] 0.063

TAB2 (UniProt Q9NYJ8)
inactive: [1] 0.018 | [2] 0.009 | [3] 0.025 | [4] 0.028 | [5] -0.007

SYP (UniProt P08247)
inactive: [1] -0.086 | [2] 0.009 | [3] 0.034 | [4] -0.08 | [5] -0.082

SYMPK (UniProt Q92797)
inactive: [1] -0.033 | [2] 0.015 | [3] 0.005 | [4] -0.012 | [5] 0.038

STX3 (UniProt Q13277)
inactive: [1] 0.039 | [2] -0.021 | [3] 0.02 | [4] -0.109 | [5] -0.01

TAF4B (UniProt Q92750)
inactive: [1] 0.037 | [2] -0.064 | [3] 0.022 | [4] -0.166 | [5] -0.149

SUZ12 (UniProt Q15022)
inactive: [1] -0.011 | [2] 0.042 | [3] -0.008 | [4] -0.047 | [5] -0.039

STMN2 isoform 2 (UniProt Q93045)
inactive: [1] -0.057 | [2] -0.026 | [3] -0.058 | [4] 0.04 | [5] -0.029

STXBP2 (UniProt Q15833)
inactive: [1] -0.036 | [2] 0.007 | [3] -0.011 | [4] -0.002 | [5] 0.064
